## Screening data

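Genome-wide siRNA knockdown in TC32 Ewing sarcoma cells, comparing luciferase light from an NR0B1-promoter reporter with a CMV-promoter reporter 48 hours after transfection.
Each siRNA was applied at 20 nM.
A z-score of the log NR0B1-over-CMV signal, less the median of siRNAs with the same seed; more negative means a stronger specific loss of the NR0B1 reporter.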

This is part of the screen; most of the strongest results are not listed here.
Sequences are the guide (antisense) strand, without overhang.

| # | Sequence | gene | seed-corrected z-score |
|---|---|---|---|
| 1 | `AAAGAGUGAAGUUCUCGGC` | P2RX1 | 1.563 |
| 2 | `UAGGCAUCGAAGACGCUCG` | RPS26P28 | 1.489 |
| 3 | `UUACCGUCUCUCUUCCUUC` | DAOA | 0.4006 |
| 4 | `UUAGGUUUCUGAAUAAUCA` | AHNAK | 0.8142 |
| 5 | `UCCUUGAGCUGCAUAUUGC` | LYRM2 | 0.3774 |
| 6 | `UUUGAUAACACCCGCAGGU` | SLC25A38 | 0.07546 |
| 7 | `UAGGAUAGCGGUAAGAGCC` | SLC6A5 | 1.564 |
| 8 | `UAAGGAGGUAUCGCUGUCG` | LMX1B | -1.001 |
| 9 | `UAUAUUCCAAGUCUCUCAG` | TRIM26 | -1.676 |
| 10 | `UAUCCUCUCUGUUGGAUGC` | IQCD | 0.1238 |
| 11 | `AAGAAUGCAACACCUUUGC` | DCTN5 | 0.0324 |
| 12 | `UGUGAAUAAAGGAUUUCUG` | SOSTDC1 | 0.5103 |
| 13 | `UUUGGUGAAAUGCUCACUA` | THAP4 | 0.8861 |
| 14 | `AUACGUUGAAUGGUGAUCU` | XG | -0.3243 |
| 15 | `ACACGAAAUAGUGUGACCC` | ARIH1 | -0.08923 |
| 16 | `UAAGGGUUAACAGCCUCGC` | PRKCQ | 0.3925 |
| 17 | `AAUAGUCCCAAAAAGAGCU` | GK | -0.1142 |
| 18 | `UCUUUUAUCGAUCCUCAGG` | FGF7 | 0.3612 |
| 19 | `UUUAGUUUUGAAGUCAAGC` | SERPIND1 | 0.7089 |
| 20 | `UUUGGGUAGAGAGUGCUAG` | WDR19 | 1.129 |
| 21 | `UCAAUUCGUGGAUUAAUCC` | EGF | 0.2415 |
| 22 | `AUGAGUAAAACAGCUAGUG` | TAPT1 | -0.544 |
| 23 | `UGUUUUUGCAUUGCGUUUG` | DLK1 | 1.418 |
| 24 | `UCUCUGUUUCUCAAACUCC` | HEMGN | -0.4199 |
| 25 | `AAACUCAUCAGCAGUCUUG` | HSD17B3 | -0.3552 |
| 26 | `UGUAUGUCAAGAAGUGAGG` | KIAA1841 | -0.8293 |
| 27 | `UUUCCUCCUACAAUUGAUC` | PSMG3 | 0.2349 |
| 28 | `UUCAUUGACAGGCUGAAGC` | C12orf74 | 0.5354 |
| 29 | `UUUGUUCUCUUCUCCGAGC` | CHERP | -0.04211 |
| 30 | `UUCUUUCUCAUCAAAGCGG` | SOGA3 | -0.1722 |
| 31 | `UUCCAUAUAAGCAGAACAG` | HNRNPLL | 1.857 |
| 32 | `UCACCGUUGAUAUCGCAGC` | SOCS6 | -0.1846 |
| 33 | `AACUGGGCUGCAUUCAGGC` | SP2 | -0.1113 |
| 34 | `UUUUUACAAACUGAGUAUC` | C6orf106 | 1.765 |
| 35 | `UGCGUGACUUAGGUGUUGG` | SLC25A12 | -0.3851 |
| 36 | `UAAGUCGUACGGAACGGGA` | DHRS7C | 0.4994 |
| 37 | `UCGCUGAUAGGCUUCCUCC` | RNF207 | 0.1296 |
| 38 | `UUAACAAGGAAUUUAGAGG` | MLIP | 0.2965 |
| 39 | `UGUGGUACAGAUCAUAGCG` | TMEM147 | 1.357 |
| 40 | `UCUUUGAUGCUUGUUAUUC` | CXorf21 | 0.5406 |
| 41 | `UUCCUUGUGACAAUCACAG` | IL16 | -0.2288 |
| 42 | `UCAUGAGUGCGUACAGUUC` | ZAP70 | -0.4099 |
| 43 | `AUUCUCAUAAGCCGUGACG` | C8orf86 | -1.335 |
| 44 | `AUACAUCCUGAGAAAAUCC` | ZCCHC12 | -1.924 |
| 45 | `UUGUUUAAUAAGGCUUAGG` | ZNF100 | -0.9773 |
| 46 | `UUGGAAGCAAGAUAAUCCC` | LPCAT2 | 0.5627 |
| 47 | `UCUAGGUCUAUGAUCGCGG` | FOXO4 | 0.02016 |
| 48 | `UUUCUGACAUCUUACAUGU` | ZCCHC10 | -0.3476 |
| 49 | `UUAGGUACAUGAACAGAAC` | OR6X1 | -0.4683 |
| 50 | `UUUUGACUAGACCCAGUCU` | C1orf127 | 0.7075 |
| 51 | `AUCGUUUGUAUCAAUACAG` | PTGES3P1 | -1.016 |
| 52 | `AAUGCUAUGAAGGAAAAGC` | POLDIP2 | 0.2537 |

From PubChem BioAssay record AID1159506 (NCATS, 2015).